# Experimental data reported in EP0352863A2, “1,4-Dihydropyridine dicarboxylic acid derivatives” (ZAMBON GROUP S.p.A., priority 1988, dated 1990).
# At least one compound was matched to its structure with a doubt left.
# Test system: anesthetized dog
# Experiment: heart rate and mean arterial pressure in the anesthetized dog
# Assay type: in vivo
# Conditions: doses of from 100 to 400 ug/kg
# Experimental: The compounds of formula I produce antihypertensive effects in mouse and dog with concomitant reduction of the heart rate.
# For example, in the anesthetized dog, compound 1 caused a heart rate reduction of from 9 to 23% and a reduction of the mean arterial pressure of from 3 to 15% at doses of from 100 to 400 ug/kg; at the same doses diastereoisomer A caused a heart rate reduction of from 17 to 30% and a mean arterial pressure reduction of from 12 to 25%, respectively.
structure (smiles),measurement,value
"CCOC(=O)C1=C(C)NC(CN(C)CC(C)(C)NCC(O)COc2ccccc2OC)=C(C(=O)OCC)C1c1cccc([N+](=O)[O-])c1 (stereo not shown) [Compound 1, ethyl 1,4-dihydro-6-methyl-2-(N-methyl-N-(2-(2-hydroxy-3-(2-methoxyphenoxy)-propylamino)-2-methylpropyl)aminomethyl)-4-(3-nitrophenyl)-3,5-pyridinedicarboxylate]",duration of hypotensive effect and bradycardia,lasting over five hours
